The test system of this test is serotonin. To be noted: 30 mg/kg in the stomach; serotonin aerosol.

Structures are written as SMILES.

As for `CN(C)CCOC(c1ccccc1)c1ccccc1` [Dimedrol], the “increase of the latent period of the intoxication reaction” value is reported as 3-4 times, the “intensity of the intoxication reaction” value is “decreases significantly” and the lethal outcomes is listed as “prevents lethal outcomes”.

The record behind these values is patent US4038402A, “Method of effecting antihistaminic, antiserotonin and antiallergic actions” (priority 1974, dated 1977).
